Results published in patent publication US20250283871A1, “COMPOSITIONS AND METHODS FOR MODULATING THE INTERACTION BETWEEN SS18-SSX FUSION ONCOPROTEIN AND NUCLEOSOMES” (Dana-Farber Cancer Institute, Inc., priority 2020, published 2025).

B1: PGK1 (protein, UniProt P00558 2-417, looked up)
Phosphoglycerate kinase 1: SLSNKLTLDKLDVKGKRVVMRVDFNVPMKNNQITNNQRIKAAVPSIKFCLDNGAKSVVLMSHLGRPDGVPMPDKYSLEPVAVELKSLLGKDVLFLKDCVGPEVEKACANPAAGSVILLENLRFHVEEEGKGKDASGNKVKAEPAKIEAFRASLSKLGDVYVNDAFGTAHRAHSSMVGVNLPQKAGGFLMKKELNYFAKALESPERPFLAILGGAKVADKIQLINNMLDKVNEMIIGGGMAFTFLKVLNNMEIGTSLFDEEGAKIVKDLMSKAEKNGVKITLPVDFVTADKFDENAKTGQATVASGIPAGWMGLDCGPESSKKYAEAVTRAKQIVWNGPVGVFEWEAFARGTKALMDEVVKATSRGCITIIGGGDTATCCAKWNTEDKVSHVSTGGGASLELLEGKVLPGVDALSNI
B2: CDY2A (protein, UniProt Q9Y6F7 1-541, looked up)
Testis-specific chromodomain …: MASQEFEVEAIVDKRQDKNGNTQYLVRWKGYDKQDDTWEPEQHLMNCEKCVHDFNRRQTEKQKKLTWTTTSRIFSNNARRRTSRSTKANYSKNSPKTPVTDKHHRSKNCKLFAASKNVRRKAASTLSDTKNMEIINSTIETLAPDSPFDHKKTVSGFQKLEKLDPIAADQQDTVVFKVTEGKLLRDPLSHPGAEQTGIQNKTQMHPLMSQMSGSVTASMATGSATRKGIVVLIDPLAANGTTDMHTSVPRVKGGQRNITDDSRGQPFIKKMHFTIRLTESAITYRDIVVKKEDGFTQIVLSTRSTEKNALNTEVIKEMVNALNSAAADDSKLVLFSAAGSVFCCGLDFGYFVRHLRNDRNTASLEMVDTIKNFVNTFIQFKKPIVVSVNGPAIGLGASILPLCDLVWANEKAWFQTPYTTFGQSPDGCSSITFPKMMGKASANEMLIAGRKLTAREACAKGLVSQVFLTGTFTQEVMIQIKELASYNAIVLEECKALVRCNIKLELEQANERECEVLRKIWSSAQGIESMLKYVENKIDEF
B3: ADAMTS19 (protein, UniProt Q8TE59 323-1213, looked up)
A disintegrin and …: YSYKLPQEYNIETVVVADPAMVSYHGADAARRFILTILNMVFNLFQHKSLSVQVNLRVIKLILLHETPPELYIGHHGEKMLESFCKWQHEEFGKKNDIHLEMSTNWGEDMTSVDAAILITRKDFCVHKDEPCDTVGIAYLSGMCSEKRKCIIAEDNGLNLAFTIAHEMGHNMGINHDNDHPSCADGLHIMSGEWIKGQNLGDVSWSRCSKEDLERFLRSKASNCLLQTNPQSVNSVMVPSKLPGMTYTADEQCQILFGPLASFCQEMQHVICTGLWCKVEGEKECRTKLDPPMDGTDCDLGKWCKAGECTSRTSAPEHLAGEWSLWSPCSRTCSAGISSRERKCPGLDSEARDCNGPRKQYRICENPPCPAGLPGFRDWQCQAYSVRTSSPKHILQWQAVLDEEKPCALFCSPVGKEQPILLSEKVMDGTSCGYQGLDICANGRCQKVGCDGLLGSLAREDHCGVCNGNGKSCKIIKGDFNHTRGAGYVEVLVIPAGARRIKVVEEKPAHSYLALRDAGKQSINSDWKIEHSGAFNLAGTTVHYVRRGLWEKISAKGPTTAPLHLLVLLFQDQNYGLHYEYTIPSDPLPENQSSKAPEPLFMWTHTSWEDCDATCGGGERKTTVSCTKIMSKNISIVDNEKCKYLTKPEPQIRKCNEQPCQTRWMMTEWTPCSRTCGKGMQSRQVACTQQLSNGTLIRARERDCIGPKPASAQRCEGQDCMTVWEAGVWSECSVKCGKGIRHRTVRCTNPRKKCVLSTRPREAEDCEDYSKCYVWRMGDWSKCSITCGKGMQSRVIQCMHKITGRHGNECFSSEKPAAYRPCHLQPCNEKINVNTITSPRLAALTFKCLGDQWPVYCRVIREKNLCQDMRWYQRCCETCRDFYAQKLQQKS
B4: ZBTB38 (protein, UniProt Q8NAP3 1-1195, looked up)
Zinc finger and BTB …: MTVMSLSRDLKDDFHSDTVLSILNEQRIRGILCDVTIIVEDTKFKAHSNVLAASSLYFKNIFWSHTICISSHVLELDDLKAEVFTEILNYIYSSTVVVKRQETVTDLAAAGKKLGISFLEDLTDRNFSNSPGPYVFCITEKGVVKEEKNEKRHEEPAITNGPRITNAFSIIETENSNNMFSPLDLRASFKKVSDSMRTASLCLERTDVCHEAEPVRTLAEHSYAVSSVAEAYRSQPVREHDGSSPGNTGKENCEALAAKPKTCRKPKTFSIPQDSDSATENIPPPPVSNLEVNQERSPQPAAVLTRSKSPNNEGDVHFSREDENQSSDVPGPPAAEVPPLVYNCSCCSKAFDSSTLLSAHMQLHKPTQEPLVCKYCNKQFTTLNRLDRHEQICMRSSHMPIPGGNQRFLENYPTIGQNGGSFTGPEPLLSENRIGEFSSTGSTLPDTDHMVKFVNGQMLYSCVVCKRSYVTLSSLRRHANVHSWRRTYPCHYCNKVFALAEYRTRHEIWHTGERRYQCIFCLETFMTYYILKNHQKSFHAIDHRLSISKKTANGGLKPSVYPYKLYRLLPMKCKRAPYKSYRNSSYENARENSQMNESAPGTYVVQNPHSSELPTLNFQDTVNTLTNSPAIPLETSACQDIPTSANVQNAEGTKWGEEALKMDLDNNFYSTEVSVSSTENAVSSDLRAGDVPVLSLSNSSENAASVISYSGSAPSVIVHSSQFSSVIMHSNAIAAMTSSNHRAFSDPAVSQSLKDDSKPEPDKVGRFASRPKSIKEKKKTTSHTRGEIPEESNYVADPGGSLSKTTNIAEETSKIETYIAKPALPGTSTNSNVAPLCQITVKIGNEAIVKRHILGSKLFYKRGRRPKYQMQEEPLPQGNDPEPSGDSPLGLCQSECMEMSEVFDDASDQDSTDKPWRPYYNYKPKKKSRQLKKMRKVNWRKEHGNRSPSHKCKYPAELDCAVGKAPQDKPFEEEETKEMPKLQCELCDGDKAVGAGNQGRPHRHLTSRPYACELCAKQFQSPSTLKMHMRCHTGEKPYQCKTCGRCFSVQGNLQKHERIHLGLKEFVCQYCNKAFTLNETLKIHERIHTGEKRYHCQFCFQRFLYLSTKRNHEQRHIREHNGKGYACFQCPKICKTAAALGMHQKKHLFKSPSQQEKIGDVCHENSNPLENQHFIGSEDNDQKDNIQTGVENVVL
B5: PHC2 (protein, UniProt Q8IXK0 1-858, looked up)
Polyhomeotic-like protein 2: MENELPVPHTSSSACATSSTSGASSSSGCNNSSSGGSGRPTGPQISVYSGIPDRQTVQVIQQALHRQPSTAAQYLQQMYAAQQQHLMLQTAALQQQHLSSAQLQSLAAVQQASLVSNRQGSTSGSNVSAQAPAQSSSINLAASPAAAQLLNRAQSVNSAAASGIAQQAVLLGNTSSPALTASQAQMYLRAQMLIFTPTATVATVQPELGTGSPARPPTPAQVQNLTLRTQQTPAAAASGPTPTQPVLPSLALKPTPGGSQPLPTPAQSRNTAQASPAGAKPGIADSVMEPHKKGDGNSSVPGSMEGRAGLSRTVPAVAAHPLIAPAYAQLQPHQLLPQPSSKHLQPQFVIQQQPQPQQQQPPPQQSRPVLQAEPHPQLASVSPSVALQPSSEAHAMPLGPVTPALPLQCPTANLHKPGGSQQCHPPTPDTGPQNGHPEGVPHTPQRRFQHTSAVILQLQPASPPQQCVPDDWKEVAPGEKSVPETRSGPSPHQQAIVTAMPGGLPVPTSPNIQPSPAHETGQGIVHALTDLSSPGMTSGNGNSASSIAGTAPQNGENKPPQAIVKPQILTHVIEGFVIQEGAEPFPVGRSSLLVGNLKKKYAQGFLPEKLPQQDHTTTTDSEMEEPYLQESKEEGAPLKLKCELCGRVDFAYKFKRSKRFCSMACAKRYNVGCTKRVGLFHSDRSKLQKAGAATHNRRRASKASLPPLTKDTKKQPTGTVPLSVTAALQLTHSQEDSSRCSDNSSYEEPLSPISASSSTSRRRQGQRDLELPDMHMRDLVGMGHHFLPSEPTKWNVEDVYEFIRSLPGCQEIAEEFRAQEIDGQALLLLKEDHLMSAMNIKLGPALKIYARISMLKDS
B6: CIZ1 (protein, UniProt Q9ULV3 1-898, looked up)
Cip1-interacting zinc finger …: MFSQQQQQQLQQQQQQLQQLQQQQLQQQQLQQQQLLQLQQLLQQSPPQAPLPMAVSRGLPPQQPQQPLLNLQGTNSASLLNGSMLQRALLLQQLQGLDQFAMPPATYDTAGLTMPTATLGNLRGYGMASPGLAAPSLTPPQLATPNLQQFFPQATRQSLLGPPPVGVPMNPSQFNLSGRNPQKQARTSSSTTPNRKDSSSQTMPVEDKSDPPEGSEEAAEPRMDTPEDQDLPPCPEDIAKEKRTPAPEPEPCEASELPAKRLRSSEEPTEKEPPGQLQVKAQPQARMTVPKQTQTPDLLPEALEAQVLPRFQPRVLQVQAQVQSQTQPRIPSTDTQVQPKLQKQAQTQTSPEHLVLQQKQVQPQLQQEAEPQKQVQPQVQPQAHSQGPRQVQLQQEAEPLKQVQPQVQPQAHSQPPRQVQLQLQKQVQTQTYPQVHTQAQPSVQPQEHPPAQVSVQPPEQTHEQPHTQPQVSLLAPEQTPVVVHVCGLEMPPDAVEAGGGMEKTLPEPVGTQVSMEEIQNESACGLDVGECENRAREMPGVWGAGGSLKVTILQSSDSRAFSTVPLTPVPRPSDSVSSTPAATSTPSKQALQFFCYICKASCSSQQEFQDHMSEPQHQQRLGEIQHMSQACLLSLLPVPRDVLETEDEEPPPRRWCNTCQLYYMGDLIQHRRTQDHKIAKQSLRPFCTVCNRYFKTPRKFVEHVKSQGHKDKAKELKSLEKEIAGQDEDHFITVDAVGCFEGDEEEEEDDEDEEEIEVEEELCKQVRSRDISREEWKGSETYSPNTAYGVDFLVPVMGYICRICHKFYHSNSGAQLSHCKSLGHFENLQKYKAAKNPSPTTRPVSRRCAINARNALTALFTSSGRPPSQPNTQDKTPSKVTARPSQPPLPRRSTRLKT
B7: KIF20A (protein, UniProt O95235 2-890, looked up)
Kinesin-like protein KIF20A: SQGILSPPAGLLSDDDVVVSPMFESTAADLGSVVRKNLLSDCSVVSTSLEDKQQVPSEDSMEKVKVYLRVRPLLPSELERQEDQGCVRIENVETLVLQAPKDSFALKSNERGIGQATHRFTFSQIFGPEVGQASFFNLTVKEMVKDVLKGQNWLIYTYGVTNSGKTHTIQGTIKDGGILPRSLALIFNSLQGQLHPTPDLKPLLSNEVIWLDSKQIRQEEMKKLSLLNGGLQEEELSTSLKRSVYIESRIGTSTSFDSGIAGLSSISQCTSSSQLDETSHRWAQPDTAPLPVPANIRFSIWISFFEIYNELLYDLLEPPSQQRKRQTLRLCEDQNGNPYVKDLNWIHVQDAEEAWKLLKVGRKNQSFASTHLNQNSSRSHSIFSIRILHLQGEGDIVPKISELSLCDLAGSERCKDQKSGERLKEAGNINTSLHTLGRCIAALRQNQQNRSKQNLVPFRDSKLTRVFQGFFTGRGRSCMIVNVNPCASTYDETLHVAKFSAIASQLVHAPPMQLGFPSLHSFIKEHSLQVSPSLEKGAKADTGLDDDIENEADISMYGKEELLQVVEAMKTLLLKERQEKLQLEMHLRDEICNEMVEQMQQREQWCSEHLDTQKELLEEMYEEKLNILKESLTSFYQEEIQERDEKIEELEALLQEARQQSVAHQQSGSELALRRSQRLAASASTQQLQEVKAKLQQCKAELNSTTEELHKYQKMLEPPPSAKPFTIDVDKKLEEGQKNIRLLRTELQKLGESLQSAERACCHSTGAGKLRQALTTCDDILIKQDQTLAELQNNMVLVKLDLRKKAACIAEQYHTVLKLQGQVSAKKRLGTNQENQQPNQQPPGKKPFLRNLLPRTPTCQSSTDCSPYARILRSRRSPLLKSGPFGKKY

What follows are molecules tested on BAF complex subunits and histone proteins (assay: Mass spectrometry proteomics of purified HA-SS18 WT and HA-SS18-SSX1 complexes (Tables 5A-5E)). Conditions: HA-SS18SSX1_CHR_peptides: proteins found in HA-SS18-SSX1 BAF complex purification from solubilized chromatin (CHR), HEK-293T.
Design: species or system human

Total (peptides), 1:
B1, B2, B3, B4, B5, B6, B7

Unique (peptides), 1:
B1, B2, B3, B4, B5, B6, B7

Same assay, conditions: HA-SS18WT_NE_peptides: proteins co-purified with HA-SS18 WT from nuclear extract (NE), HEK-293T

Total (peptides), 1:
B3

Unique (peptides), 1:
B3
